From patent US12570643B2, “3-aryloxy-3-five-membered heteroaryl propylamine compound, and crystal form and use thereof” (Shanghai Leado Pharmatech Co. Ltd., priority 2019, dated 2026)
Some of these results come from one statement about several compounds together. Some compounds share one range, which may span the group rather than tell each member.

By UniProt entry, the sequences of proteins in these tests, tags left out.
UniProt Q8BLA8, whole entry: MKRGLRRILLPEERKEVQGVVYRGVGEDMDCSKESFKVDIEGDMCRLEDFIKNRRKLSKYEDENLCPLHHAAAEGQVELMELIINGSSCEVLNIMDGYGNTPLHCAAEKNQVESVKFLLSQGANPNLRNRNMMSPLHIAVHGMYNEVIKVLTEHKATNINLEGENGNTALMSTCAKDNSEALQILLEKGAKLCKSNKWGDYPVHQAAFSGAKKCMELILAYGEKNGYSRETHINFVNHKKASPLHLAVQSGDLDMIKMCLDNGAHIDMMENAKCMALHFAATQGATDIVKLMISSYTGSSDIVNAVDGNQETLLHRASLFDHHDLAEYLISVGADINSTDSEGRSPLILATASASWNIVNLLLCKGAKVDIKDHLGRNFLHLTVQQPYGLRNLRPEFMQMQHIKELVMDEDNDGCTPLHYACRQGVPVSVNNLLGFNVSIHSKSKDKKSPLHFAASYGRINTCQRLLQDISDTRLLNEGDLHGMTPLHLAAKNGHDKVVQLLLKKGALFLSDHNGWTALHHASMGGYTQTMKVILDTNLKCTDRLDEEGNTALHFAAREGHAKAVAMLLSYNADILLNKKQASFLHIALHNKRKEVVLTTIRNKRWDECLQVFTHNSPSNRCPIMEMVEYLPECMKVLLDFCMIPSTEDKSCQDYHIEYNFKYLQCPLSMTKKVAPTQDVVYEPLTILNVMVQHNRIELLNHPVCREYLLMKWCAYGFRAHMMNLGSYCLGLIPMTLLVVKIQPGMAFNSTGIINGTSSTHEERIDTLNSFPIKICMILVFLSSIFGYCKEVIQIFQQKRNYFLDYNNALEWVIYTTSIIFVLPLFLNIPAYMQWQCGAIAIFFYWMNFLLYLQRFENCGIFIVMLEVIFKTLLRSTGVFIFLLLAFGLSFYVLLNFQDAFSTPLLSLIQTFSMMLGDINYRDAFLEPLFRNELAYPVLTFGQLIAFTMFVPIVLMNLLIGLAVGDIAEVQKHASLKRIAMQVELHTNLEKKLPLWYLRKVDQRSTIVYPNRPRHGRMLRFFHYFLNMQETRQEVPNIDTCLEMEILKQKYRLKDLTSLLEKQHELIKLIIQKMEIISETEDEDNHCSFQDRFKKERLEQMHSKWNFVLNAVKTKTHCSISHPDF

Biological target: T1, TRPA1 (Mus musculus, UniProt Q8BLA8)
T1 construct: expressed in transfected cells; host or cells: HEK293 cells stably expressing TRPA1
Experiment: TRPA1 inhibitory activity, IonWorks Barracuda (IWB) automatic patch clamp detection
Format: cell-based
Experimental: In this example, the compounds prepared in some examples of the present invention (shown in Table 1) were tested for their inhibitory activity on the transient receptor potential channel protein TRPA1. Wherein, compound of formula A (WO2010075353) was used as positive control: […]
Test method by using IonWorks Barracuda (IWB) automatic patch clamp detection: HEK293 cells stably expressing TRPA1 were placed in a 37° C., 5% CO2 incubator and incubated with DMEM medium containing 15 μg/mL Blasticidin S HCl, 200 μg/mL Hygromycin B and 10% FBS serum in a T175 culture flask. When the cell density grew to […], the culture medium was removed, the cells were washed with calcium and magnesium free phosphate buffered saline (PBS), and 3 mL of Trypsin was added and digested for 2 minutes, and 7 mL of culture medium was added to terminate the digestion. The cells were collected into a 15 mL centrifuge tube and centrifuged at 800 r/min for 3 minutes, after removing the supernatant, the cells were added into the extracellular fluid with appropriate volume to re-suspend, so that the cell density was controlled at 2-3×10^6/mL for IWB experiments. Extracellular fluid formulation (in mM): 140 NaCl, 5 KCl, 1 MgCl2, 10 HEPES, 0.5 EGTA, 10 Glucose (pH 7.4); Intracellular fluid formulation (in mM): 140 CsCl, 10 HEPES, 5 EGTA, 0.1 CaCl2, 1 MgCl2 (pH 7.2). Amphotericin B was freshly prepared with DMSO to 28 mg/mL on the day of the experiment, and then formulated into a final concentration of 0.1 mg/mL with the intracellular fluid.
The IWB experiment used a population patch clamp (PPC) plate, and the entire detection process was automatically completed by the instrument, that is, extracellular fluid was added into the 384 wells of the PPC plate, and the intracellular fluid was added into the plenum which was under the PPC plate, and then 6 µL of cell fluid was added for sealing test, and finally the intracellular fluid in plenum was replaced with amphotericin B-containing intracellular fluid, so that the sealed cells were perforated to form a whole-cell recording mode. The sampling frequency for recording the TPRA1 current was 10 kHz, the cell was clamped at 0 mV, and the voltage stimulation command (channel protocol) was a ramp voltage from −100 mV to +100 mV for 300 ms, the voltage stimulation was given every 10 s, and the mTRPA1 current was induced via 300 µM AITC.
Data recording and current amplitude measurement and export were completed by IWB Software (version 2.5.3, Molecular Devices Corporation, Union City, CA). The statistics of the well with a sealing impedance lower than 20 M Ω were not recorded. The original current data was corrected by software, the TRPA1 current amplitude was measured in +100 mV. […] The dose-effect curve and IC50 of compounds were fitted and calculated by GraphPad Prism 5.02 (GraphPad Software, San Diego, CA).

Row | Structure (SMILES) | ratio of the IC50 of R-duloxetine to the IC50 of the compound
1 | CNCC[C@@H](Oc1cccc2ccoc12)c1cccs1 [Compound I-1, (R)-3-(benzofuran-7-yloxy)-N-methyl-3-(thiophen-2-yl)propan-1-amine] | 9.3-23.5
2 | CN(C)CC[C@@H](Oc1cccc2ccoc12)c1cccs1 [Compound I-3, (R)-3-(benzofuran-7-yloxy)-N,N-dimethyl-3-(thiophen-2-yl)propan-1-amine] | 9.3-23.5
3 | CCNCC[C@@H](Oc1cccc2ccoc12)c1cccs1 [Compound I-4, (R)-3-(benzofuran-7-yloxy)-N-ethyl-3-(thiophen-2-yl)propan-1-amine] | 9.3-23.5
4 | CNCC[C@@H](Oc1cccc2ccoc12)c1ccsc1 [Compound I-5, (R)-3-(benzofuran-7-yloxy)-N-methyl-3-(thiophen-3-yl)propan-1-amine] | 9.3-23.5
5 | CNCC[C@@H](Oc1cccc2ccoc12)c1ccco1 [Compound I-8, (R)-3-(benzofuran-7-yloxy)-3-(furan-2-yl)-N-methylpropan-1-amine] | 9.3-23.5
6 | CNCC[C@@H](Oc1cccc2c1CCC2)c1cccs1 [Compound I-9, (R)-3-((2,3-dihydro-1H-inden-4-yl)oxy)-N-methyl-3-(thiophen-2-yl)propan-1-amine] | 9.3-23.5
